Laboratory results reported in article PMC10599278.
No constants are given. Whether binding was seen depends on the method and setting. In cells and extracts the contact can be indirect. Some results given as binding are weak or reduced against the parent protein; the word gives no strength.

Amino acid sequences for entries named in this document (tags omitted).
UniProt O00425: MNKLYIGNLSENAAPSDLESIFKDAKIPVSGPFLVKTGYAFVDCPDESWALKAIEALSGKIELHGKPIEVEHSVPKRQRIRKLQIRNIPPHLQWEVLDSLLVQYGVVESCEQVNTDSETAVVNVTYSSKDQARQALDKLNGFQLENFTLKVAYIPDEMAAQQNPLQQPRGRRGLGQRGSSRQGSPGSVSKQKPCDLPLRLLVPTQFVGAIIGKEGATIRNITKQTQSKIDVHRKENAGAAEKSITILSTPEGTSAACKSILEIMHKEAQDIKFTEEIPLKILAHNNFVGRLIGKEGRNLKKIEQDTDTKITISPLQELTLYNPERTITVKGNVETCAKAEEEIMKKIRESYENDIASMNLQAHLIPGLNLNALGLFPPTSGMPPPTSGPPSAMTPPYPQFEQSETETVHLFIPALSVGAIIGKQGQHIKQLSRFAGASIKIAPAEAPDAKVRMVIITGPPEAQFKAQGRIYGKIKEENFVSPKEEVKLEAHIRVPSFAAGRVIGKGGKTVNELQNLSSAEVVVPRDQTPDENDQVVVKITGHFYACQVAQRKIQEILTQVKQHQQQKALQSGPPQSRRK
UniProt O60260: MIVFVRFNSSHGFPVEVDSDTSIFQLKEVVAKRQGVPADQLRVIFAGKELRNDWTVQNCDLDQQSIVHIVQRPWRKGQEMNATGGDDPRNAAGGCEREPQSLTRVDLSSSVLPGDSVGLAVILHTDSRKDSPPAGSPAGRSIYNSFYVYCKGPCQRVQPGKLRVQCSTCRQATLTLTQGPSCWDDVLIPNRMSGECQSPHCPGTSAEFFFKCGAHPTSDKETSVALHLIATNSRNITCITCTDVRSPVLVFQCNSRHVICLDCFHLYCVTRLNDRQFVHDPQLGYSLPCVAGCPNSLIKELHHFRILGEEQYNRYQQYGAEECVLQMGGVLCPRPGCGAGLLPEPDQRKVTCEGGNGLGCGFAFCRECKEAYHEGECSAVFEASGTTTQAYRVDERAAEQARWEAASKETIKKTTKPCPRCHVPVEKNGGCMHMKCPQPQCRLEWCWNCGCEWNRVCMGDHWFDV

Legend:
GFP-IGF2BP3 (human) = GFP-IGF2BP3 (human) (UniProt O00425); assay: co-IP; HEK293 cells cotransfected with Flag-Parkin and GFP-IGF2BP3; IP and reverse IP; lysates in IP buffer with antibodies overnight at 4°C, washed three times, immunoblot
Flag-Parkin [1] = target: Flag-Parkin (UniProt O60260); assay: co-IP; HeLa cells co-overexpressing GFP-IGF2BP3 and Flag-Parkin (wild type or mutant), treated with SAHA (2.5 μM, 12 h); pulldown by FLAG, IGF2BP3 measured by blot
Flag-Parkin [2] = target: Flag-Parkin (UniProt O60260); assay: co-IP; HEK293 cells cotransfected with Flag-Parkin and GFP-IGF2BP3; IP and reverse IP; lysates in IP buffer with antibodies overnight at 4°C, washed three times, immunoblot

binding (GFP-IGF2BP3 (human))	binding (Flag-Parkin [1])	binding (Flag-Parkin [2])	Substance
binds	–	–	Flag-Parkin (from UniProt O60260 1-465) (enzyme)
–	binds	binds	GFP-IGF2BP3 (from UniProt O00425 1-579)
